Our source for the binding values is patent publication US20180320177A1, “COMPOSITIONS AND METHODS FOR THE TREATMENT OF LIVER FIBROSIS” (UNIVERSITY OF CONNECTICUT, priority 2015, published 2018).

The chains behind the UniProt entries cited, without tags or fusion partners.
UniProt P20263: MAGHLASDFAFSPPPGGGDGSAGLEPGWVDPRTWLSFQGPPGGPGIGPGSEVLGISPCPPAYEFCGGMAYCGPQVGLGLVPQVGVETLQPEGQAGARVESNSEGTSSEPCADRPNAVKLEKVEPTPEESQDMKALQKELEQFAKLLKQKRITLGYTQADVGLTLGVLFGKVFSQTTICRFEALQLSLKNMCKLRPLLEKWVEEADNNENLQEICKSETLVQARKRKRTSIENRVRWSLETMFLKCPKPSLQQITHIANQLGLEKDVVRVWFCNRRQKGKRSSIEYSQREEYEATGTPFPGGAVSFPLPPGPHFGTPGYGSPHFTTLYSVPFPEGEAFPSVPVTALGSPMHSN

Results are given in words; binding and its absence hold for the method and conditions named. In cells and extracts the contact can be indirect. Some entries that bind do so weakly or less than the wild type.

Experiment [1] has as its target OCT4 protein, endogenous in CGR8 mouse ES cells (mouse) (UniProt P20263). Kind of experiment: summary of the co-immunoprecipitation in CGR8 cells.
Experiment [2] has the same target. Kind of experiment: endogenous co-immunoprecipitation from CGR8 cell lysate with OCT4 antibody, Western blot with HMGB2 antibody.

B1: HMGB2 (high mobility box 2) protein, endogenous in CGR8 mouse ES cells (protein, UniProt P30681 1-210, looked up)
chain: MGKGDPNKPRGKMSSYAFFVQTCREEHKKKHPDSSVNFAEFSKKCSERWKTMSAKEKSKFEDLAKSDKARYDREMKNYVPPKGDKKGKKKDPNAPKRPPSAFFLFCSENRPKIKIEHPGLSIGDTAKKLGEMWSEQSAKDKQPYEQKAAKLKEKYEKDIAAYRAKGKSEAGKKGPGRPTGSKKKNEPEDEEEEEEEEEEEDDEEEEEDEE
For the molecule B1, the binding result in experiment [1] and in experiment [2] was “binds” throughout.
